From patent US4748232A, “Peptide production and use thereof” (Suntory Limited, priority 1983, dated 1988)

System: Male rats
Experiment: Diuretic and natriuretic action in anesthetized rats (urine collected via bladder cannula)
Format: in vivo, rat
Settings: 1.21 μ mole, group V
Method: Male rats weighing 300 to 400 grams were anesthetized by intraperitoneal administration of pentobarbital at a dosage of 60 mg/kg, and used for tests of the α-hANP according to the method described in Life Sciences, Vol. 28, pp 89-94.
To keep the respiratory tract open, a tracheal cannula (PE-240 Clay-Adams) was inserted into the trachea. An arterial cannula (PE-50) was inserted into a femoral artery for measurement of the blood pressure, and a venous cannula was inserted into a femoral vein for the administration of Ringer's solution. 1.2 ml of Ringer's solution was injected for ten minutes, and subsequently, was constantly infused at a flow rate of 1.2 ml/hour.
A bladder cannula made of silastic tube with an inner diameter of 0.02 inches and an outer diameter of 0.037 inches was inserted into the bladder, and via the cannula, a urine sample was collected into a test tube. The collection of urine was carried out for 30 minutes before administration of the test compound, and every five minutes after the administration.
A predetermined amount of the test compound α-hANP was dissolved in 50 μl of sterilized physiological saline with 5 μg of bacitracin, and the solution was injected into the jugular vein.
The amount of α-hANP administered was 0.1 n mole (group II), 0.2 n mole (group III), or 0.4 n mole (group IV). The control group (group I) was administered 50 μl of physiological saline containing only bacitracin. For comparison, group V received 50 μl of physiological saline containing bacitracin and 1.21μ mole of furosemide, which is a known natriuretic agent.
Groups I to IV each consisted of three animals, and group V consisted of four animals.

## NS(=O)(=O)c1cc(C(=O)O)c(NCc2ccco2)cc1Cl [Furosemide, furosemide]
5 minutes after administration
  Cl Excretion A: 40242 ± 6859 n eq/min
  K Excretion A: 6897 ± 392 n eq/min
  Na Excretion A: 20018 ± 2990 n eq/min
  Na/K ratio A: 2.90
Before administration
  Cl Excretion B: 1708 ± 334 n eq/min
  K Excretion B: 1945 ± 465 n eq/min
  Na Excretion B: 1134 ± 283 n eq/min
  Na/K ratio B: 0.58
